PubChem BioAssay AID493014 (National Center for Advancing Translational Sciences (NCATS), 2011)
The campaign covered roughly 340,000 compounds. About 170 (0.05%) were called active. This list was built around the results that the source calls inconclusive (neither active nor inactive); the mix of calls is not that of the screen. Calls come from the whole dose curve; as a rule, active = well fitted inhibition curve with a large enough effect in the signal ratio, with a control signal flat (not every such curve was filed as active); inconclusive = small, poorly fitted or top-dose-only effect, or effect the other way, or a change in a side signal; inactive = flat fitted curve, though single readings scatter; the % refers to the signal ratio. Potencies of inconclusive entries are doubtful fits and often do not repeat.

experiment: qHTS Assay to Find Inhibitors of Chronic Active B-Cell Receptor Signaling; conditions: ABC-DLBCL IkBa-CBG/CBR reporter, luminescence ratio (green luciferase fused to IkBa over red control in TMD8 lymphoma cells), 4 h; activity change, negative = inhibition: at 46.1 µM (top of the series);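 for activity change, negative = inhibition: plate controls were basal doxycycline-induced cells for no effect and cells given 10 µM MG132 for full effect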
In short: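 Cell line TMD8 (human ABC DLBCL), stably expressing tet-inducible CBG68-IkBa fusion and CBR; IMDM/0.5% FBS; cpd up to 46 uM; dox induction, 4 h, 37C/5% CO2; dual luminescence; green/red ratio; MG132 control.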
Potency is the fitted concentration of half-maximal effect.

Q: Which activity change, negative = inhibition does the source give for `O=C(Nc1cccc(S(=O)(=O)N2CCCCC2)c1)c1cncc(Br)c1` here?
A: inconclusive: -5.84%

Q: Which activity change, negative = inhibition does the source give for `O=C(CSc1ccc(Cl)cc1)Nc1ccc(C2SCCS2)cc1` here?
A: inconclusive: 15.9%

Q: For `CC(=O)Oc1ccc(C(=O)Nc2ccccc2C(=O)N2CCCC2)cc1`, which activity change, negative = inhibition is on record?
A: inconclusive: -9.03%

Q: For `Cc1c(C(=O)N2CCC(C(N)=O)CC2)oc2ccc(Br)cc12`, which Potency is on record?
A: inconclusive: 32.6 µM [falling, partial curve, poor fit]

Q: With `COc1cccc(-c2csc(N3CCN(CC(=O)NNC(=O)c4ccco4)CC3)n2)c1` as the compound, how does the activity change, negative = inhibition read?
A: inconclusive: -2.43%

Q: With `COc1ccc(C(=O)OCc2csc(C)n2)c(O)c1` as the compound, how does the activity change, negative = inhibition read?
A: inconclusive: 3.55%

Q: Which activity change, negative = inhibition does the source give for `Cc1sc2nc(CN3CCN(S(=O)(=O)c4cccc5nonc45)CC3)[nH]c(=O)c2c1C` here?
A: inconclusive: -8.07%

Q: With `O=C(O)CCCn1c(O)c(C=C2N=c3ccccc3=N2)sc1=S` as the compound, how does the Potency read?
A: inconclusive: 28.2 µM [rising, partial curve]

Q: For `Cn1c(SCC(=O)Nc2ccccc2Oc2ccccc2)nnc1C1CC1`, which activity change, negative = inhibition is on record?
A: inconclusive: 8.65%

Q: Which activity change, negative = inhibition does the source give for `COCCCNC(=O)c1c(N)n(/N=C/c2ccccn2)c2nc3ccccc3nc12` here?
A: inconclusive: -16.2%

Q: For `O=c1cc(-c2ccc(O)c(O)c2)oc2c1ccc1ccccc12`, which activity change, negative = inhibition is on record?
A: inconclusive: 8.88%

Q: Which activity change, negative = inhibition does the source give for `Cc1ccc(NS(=O)(=O)c2ccc(NC(=O)C(C)Sc3ccc(Cl)cc3)cc2)c(C)c1` (configuration not stated) here?
A: inconclusive: 4.54%

Q: For `CCc1ccc(C(=O)Nc2cc(C)ccc2F)s1`, which Potency is on record?
A: inconclusive: 25.1 µM [falling, partial curve]

Q: With `CC1CCN(C(C(=O)O)c2ccccc2)CC1` (configuration not stated) as the compound, how does the activity change, negative = inhibition read?
A: inconclusive: 3.61%

Q: Which activity change, negative = inhibition does the source give for `COc1ccc(NC(C)=O)cc1NS(=O)(=O)c1ccc2c(c1)OCCO2` here?
A: inconclusive: 1.35%

Q: Which activity change, negative = inhibition does the source give for `COC(=O)c1n[nH]n(-c2cc(Cl)cc(Cl)c2)c1=O` here?
A: inconclusive: -19.4%

Q: For `O=C(c1cc2ccccc2o1)c1nc2c(n1O)CCCCC2`, which Potency is on record?
A: inconclusive: 25.9 µM [rising, single point]

Q: For `COc1ccc2ccccc2c1/C=N/N1C(=O)CSC1=S`, which “activity change, negative = inhibition” value is on record?
A: inactive: -0.712%

Q: For `O=C(Nc1ccc(Br)cn1)c1ccc(Br)s1`, which Potency is on record?
A: inconclusive: 17.8 µM [falling, single point]

Q: With `CCOc1ccc(C(=O)C(CCC(CN(C)C)C(=O)c2ccc(OCC)cc2)CN(C)C)cc1` (configuration not stated) as the compound, how does the Potency read?
A: inconclusive: 0.731 µM [falling, full curve, poor fit]

Q: For `CCC(NC(=O)c1ccccc1NC(=O)c1ccccc1)C(=O)OC` (configuration not stated), which activity change, negative = inhibition is on record?
A: inconclusive: 6.01%

Q: With `Cc1cc2nc3c(nc2cc1C)CCCC3` as the compound, how does the activity change, negative = inhibition read?
A: inconclusive: -2%

Q: Which activity change, negative = inhibition does the source give for `COC(=O)C(NC(C)=O)(Nc1ccc(Br)cc1)C(=O)OC` here?
A: inconclusive: 1.16%

Q: For `O=C(Nc1nnc(Cc2ccc([N+](=O)[O-])cc2)s1)c1ccc2c(c1)OCO2`, which “activity change, negative = inhibition” value is on record?
A: inactive: 2.69%

Q: With `COCc1cc(=O)[nH]c(SCCS(=O)(=O)c2ccc(Cl)cc2Cl)n1` as the compound, how does the “activity change, negative = inhibition” value read?
A: inactive: 0.0469%

Q: Which activity change, negative = inhibition does the source give for `COc1ccc(N(CC(=O)Nc2cccc(OC)c2)S(=O)(=O)c2c(C)nn(C)c2C)cc1` here?
A: inconclusive: 9.7%

Q: Which activity change, negative = inhibition does the source give for `COc1ccccc1NC(=O)Nc1nc(CC(=O)Nc2ccc(OC)c(OC)c2)cs1` here?
A: inconclusive: -2.07%

Q: For `O=C(C1COc2ccccc2O1)N1CCc2ccccc2C1` (configuration not stated), which activity change, negative = inhibition is on record?
A: inconclusive: 22.1%

Q: Which Potency does the source give for `COc1cc(/C(C)=N/NC(=S)NC(C)C)cc(OC)c1OC` here?
A: inconclusive: 18.4 µM [cytotoxic, partial curve]

Q: For `COc1ccc(S(N)(=O)=O)cc1C(=O)OCC(=O)Nc1sccc1C#N`, which activity change, negative = inhibition is on record?
A: inconclusive: 9.46%

Q: With `O=C(Nc1ccc2c(c1)OCCO2)c1coc2ccccc2c1=O` as the compound, how does the “activity change, negative = inhibition” value read?
A: inactive: 0.931%

Q: For `CC(C)OC(=O)C(C(=O)C(F)(F)F)c1cc(NS(=O)(=O)c2ccc3ccccc3c2)c2ccccc2c1O` (configuration not stated), which activity change, negative = inhibition is on record?
A: inconclusive: -15.7%

Q: Which activity change, negative = inhibition does the source give for `COc1ccc(C(=O)CC(=O)c2ccccc2O)cc1` here?
A: inconclusive: 0.341%

Q: Which activity change, negative = inhibition does the source give for `CCN(CC)CCNC(=O)c1ccc2c(c1)ncn2C1CCCCC1` here?
A: inconclusive: -5.82%

Q: With `O=c1/c(=C/c2ccc([N+](=O)[O-])cc2)sc2n1CCCN=2` as the compound, how does the activity change, negative = inhibition read?
A: inconclusive: 0.513%

Q: Which activity change, negative = inhibition does the source give for `Cc1cc(C)c2cc(CN(CCO)Cc3nnnn3Cc3ccccc3)c(=O)[nH]c2c1` here?
A: inconclusive: -16.8%

Q: Which Potency does the source give for `O=c1[nH]c2cc(C(F)(F)F)ccc2n1-c1cc(C(F)(F)F)ccc1O` here?
A: inconclusive: 20.6 µM [falling, single point]

Q: With `Cc1cccc(NC(=O)c2ccccc2NC(=O)Cc2ccccc2)c1C` as the compound, how does the activity change, negative = inhibition read?
A: inconclusive: -2.59%

Q: For `O=C(NC1CCCCC1)c1cc2nc3c(c(C(F)(F)F)n2n1)CCCC3`, which activity change, negative = inhibition is on record?
A: inconclusive: 18.1%

Q: With `CC(C)(C)c1ccc(/C=N/OCC(=O)NCc2ccc(F)cc2)cc1` as the compound, how does the Potency read?
A: inconclusive: 20.6 µM [falling, partial curve, poor fit]

Q: For `CC(=O)Nc1ccc(NC(=O)C(C)OC(=O)c2ccc(N(C)C)cc2)cc1` (configuration not stated), which “activity change, negative = inhibition” value is on record?
A: inactive: -10.2%

Q: For `Nc1ccc(SCC(=O)Nc2cccc([N+](=O)[O-])c2)cc1`, which “activity change, negative = inhibition” value is on record?
A: inactive: -2.94%

Q: Which activity change, negative = inhibition does the source give for `CC[C@]12c3[nH]c4cc(CCC(=O)N(C)C)ccc4c3CCN1C(=O)[C@@H](CC(=O)NC/C=C(\C)CCC=C(C)C)C[C@@H]2C(=O)N1CCN(C(=O)C2CC2)CC1` here?
A: inconclusive: -15.5%

Q: With `O/N=C(/CCc1ccccc1)c1ccc2c(c1)OCCO2` as the compound, how does the activity change, negative = inhibition read?
A: inconclusive: 2.43%

Q: With `Cc1nc(Nc2cccc(C(F)(F)F)c2)nc2c1C(=O)CC(C)C2` (configuration not stated) as the compound, how does the activity change, negative = inhibition read?
A: inconclusive: 13.7%

Q: Which activity change, negative = inhibition does the source give for `CCOc1ccc(Cl)cc1CSc1n[nH]c(C)n1` here?
A: inconclusive: 0.246%

Q: Which activity change, negative = inhibition does the source give for `O=C(c1cccc(S(=O)(=O)N2CCc3ccccc32)c1)N1CCCC(C(F)(F)F)C1` (configuration not stated) here?
A: inconclusive: 0.865%

Q: Which Potency does the source give for `COc1cccc(Nc2ncnc3sccc23)c1` here?
A: inconclusive: 20 µM [falling, partial curve, poor fit]

Q: With `O=C1C2C3C=CC(CC3)C2C(=O)N1/N=C/c1c[nH]c2ccccc12` (configuration not stated) as the compound, how does the Potency read?
A: inconclusive: 2 µM [falling, partial curve, poor fit]

Q: For `NC(=O)CSc1nnnn1-c1ccc(OC(F)(F)F)cc1`, which activity change, negative = inhibition is on record?
A: inconclusive: 1.32%

Q: With `O=C(c1ccc(NS(=O)(=O)c2ccc(F)cc2)cc1)N1CCC1` as the compound, how does the “activity change, negative = inhibition” value read?
A: inactive: -9.81%

Q: Which activity change, negative = inhibition does the source give for `O=C(COC(=O)/C=C/c1cccc(Cl)c1)NC(=O)NCc1ccccc1` here?
A: inconclusive: -0.0552%
